# Library screening results

The chains behind the UniProt entries cited, without tags or fusion partners.
UniProt E9BF75, entry or part of it: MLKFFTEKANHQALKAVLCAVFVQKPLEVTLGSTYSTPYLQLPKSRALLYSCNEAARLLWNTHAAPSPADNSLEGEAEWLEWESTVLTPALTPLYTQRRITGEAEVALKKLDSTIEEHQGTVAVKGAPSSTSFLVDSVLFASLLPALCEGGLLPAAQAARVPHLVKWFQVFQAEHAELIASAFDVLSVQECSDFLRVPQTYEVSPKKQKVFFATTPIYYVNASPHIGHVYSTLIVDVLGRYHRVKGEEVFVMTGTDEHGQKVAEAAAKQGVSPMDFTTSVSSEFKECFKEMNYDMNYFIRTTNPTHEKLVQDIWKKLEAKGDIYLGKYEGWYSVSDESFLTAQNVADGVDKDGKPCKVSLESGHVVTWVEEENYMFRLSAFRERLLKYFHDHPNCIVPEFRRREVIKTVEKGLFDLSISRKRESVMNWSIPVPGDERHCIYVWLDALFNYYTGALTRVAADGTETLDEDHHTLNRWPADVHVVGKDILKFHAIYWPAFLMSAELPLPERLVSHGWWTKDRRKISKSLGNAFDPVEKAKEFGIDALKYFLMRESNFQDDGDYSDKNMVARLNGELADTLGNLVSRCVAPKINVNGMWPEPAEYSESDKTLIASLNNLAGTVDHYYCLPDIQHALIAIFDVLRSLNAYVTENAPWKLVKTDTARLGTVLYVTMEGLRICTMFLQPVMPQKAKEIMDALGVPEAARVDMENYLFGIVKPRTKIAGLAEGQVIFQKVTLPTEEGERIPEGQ

From ChEMBL document CHEMBL3988442, “University of Dundee, Small-Polar-MMV Screening Library” (2021).

LdMetRS: 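Primary screen of methionyl-tRNA synthetase; the read-out is not stated. Target: Methionyl-tRNA synthetase (putative), Leishmania donovani (UniProt E9BF75). The test concentration is not given. The values are filed as inhibition. Of about 68,000 compounds tested this way, about 24 (0.035%) reached 50% or more in at least one test.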
Mtb heat-shock: 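Assay on Mycobacterium tuberculosis, filed only as a heat shock assay from Cornell; the read-out is not stated. The concentration is filed as 10 mM, unlikely as a test dose, so the dose is not known. Higher reads as stronger inhibition (inferred: compounds with an IC50 in retests scored well above the rest). About 69,000 compounds were tested under these conditions; 1.4% (about 930) showed 50% or more at least once.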

Results are percentages, as filed. The record does not define 0% and 100%; most values in the screen are far below 50% and negative numbers occur (in some assays of this library far below -100). This is an unselected part of the compounds tested. A dash means the value is not listed here; it may have been measured.

{"compound": "Cc1cccc(C(C(=O)NCC2(Cn3nc(C)cc3C)CC2)N(C)C)c1", "stereo": "stereo not given", "LdMetRS": -1.003, "Mtb heat-shock": -17.68}
{"compound": "CCOC(C)C(=O)NCCNS(C)(=O)=O", "stereo": "stereo not given", "LdMetRS": 19.35, "Mtb heat-shock": 69.12}
{"compound": "CC(C)(C(=O)NCC1CCN(Cc2ccccn2)C1)c1ccccc1", "stereo": "stereo not given", "LdMetRS": 9.148, "Mtb heat-shock": -0.1229}
{"compound": "CC(C)N(CCCNC(=O)C1CCOCC1)S(C)(=O)=O", "LdMetRS": 8.657, "Mtb heat-shock": 11.02}
{"compound": "CC(C)CCN1CC2(CCN(C(=O)C3(C)CC3)CC2)OC1=O", "LdMetRS": 13.89, "Mtb heat-shock": 26.39}
{"compound": "O=C(c1ccccc1)N1CCCC2(CCN2Cc2cccc(F)c2)C1", "stereo": "stereo not given", "LdMetRS": 5.714}
{"compound": "CCOc1ccc(S(=O)(=O)NCCc2ccc(N(C)C)cc2)cc1C", "LdMetRS": 12.23, "Mtb heat-shock": -5.087}
{"compound": "Cc1cc2ccccc2n1CCC(=O)N1CCCC(O)(CN(C)C)CC1", "stereo": "stereo not given", "LdMetRS": 11.78, "Mtb heat-shock": -203.6}
{"compound": "OCC1CCCCN1Cc1nc(Cc2ccccc2)no1", "stereo": "stereo not given", "LdMetRS": 12.57, "Mtb heat-shock": -3.723}
{"compound": "CN(C)C(=O)N1CCc2c(COCC3CC3)cncc2C1", "LdMetRS": 12.38, "Mtb heat-shock": -12.69}
{"compound": "Cc1ccc(C2CC(=O)NCc3nc(N)sc32)cc1C", "stereo": "stereo not given", "LdMetRS": 13.17, "Mtb heat-shock": 3.084}
{"compound": "O=C(O)C(F)(F)F.O=C(O)C(F)(F)F.c1cncc(CN2CCc3ncnc(C4CC4)c3CC2)c1", "Mtb heat-shock": -16.21}
{"compound": "CCCNC(=O)c1cnc2n1CCCC2", "LdMetRS": 9.366, "Mtb heat-shock": -191}
{"compound": "O=C(Cc1ccco1)N1C[C@@H]2COC[C@]2(COCC2CCOCC2)C1", "LdMetRS": 22.41}
{"compound": "CC(C)(CO)Nc1c(NCc2ccccn2)c(=O)c1=O", "LdMetRS": 11.66, "Mtb heat-shock": -1.838}
{"compound": "CCc1nc(C2CCCN2Cc2nc(Cc3ccccc3)no2)no1", "stereo": "stereo not given", "LdMetRS": 1.718, "Mtb heat-shock": 0.572}
{"compound": "CN(C)c1cc(CNC(=O)c2ccc(F)cc2)ccn1", "LdMetRS": 19.88, "Mtb heat-shock": 1.596}
{"compound": "[H][C@@]12CCN(c3ncccn3)[C@]1([H])CC[C@H](C(=O)NC)O2", "Mtb heat-shock": -21.59}
{"compound": "CC(C)c1cc(C(=O)O)nc2[nH]c(=O)[nH]c(=O)c12", "LdMetRS": 10.75, "Mtb heat-shock": 2.696}
{"compound": "CC(=O)N[C@@H]1CN(C(=O)c2cccc(C)c2)C[C@H]1O", "LdMetRS": 9.302, "Mtb heat-shock": 4.284}
{"compound": "Cc1cccc(CN2CCC3(CCCN(CC(=O)N(C)C)C3)C2)n1", "stereo": "stereo not given", "LdMetRS": 7.843}
{"compound": "CC(=O)NCC(=O)N1Cc2nccn2CC(CN2CCCC2)C1", "stereo": "stereo not given", "LdMetRS": 15.15, "Mtb heat-shock": 1.953}
{"compound": "CCN1CC2(CC1=O)CN(C(=O)C(C)C)CCN(S(C)(=O)=O)C2", "stereo": "stereo not given", "LdMetRS": 5.072, "Mtb heat-shock": 0.355}
{"compound": "CCc1cnc(N2CC[C@H]3[C@@H]2CCC(=O)N3CC2CCOCC2)nc1", "LdMetRS": 4.348}
{"compound": "COC(=O)c1cccc2nc([C@H]3CCN(CC(C)C)C3)oc12", "LdMetRS": 4.511, "Mtb heat-shock": -23.1}
{"compound": "COC(=O)c1ccc(NCc2csc(C)n2)cc1Cl", "LdMetRS": 14.4, "Mtb heat-shock": -3.624}
{"compound": "O=c1oc(-c2ccc(F)cc2)nn1CCc1ccncc1", "LdMetRS": 7.023, "Mtb heat-shock": -4.661}
{"compound": "COc1cccc(N2CCN(Cc3nccc(OC)c3OC)CC2=O)c1", "LdMetRS": 4.092, "Mtb heat-shock": 4.076}
{"compound": "CCOC1COC2(CCN(Cc3cccc(C)n3)CC2)C1", "stereo": "stereo not given", "LdMetRS": 8.743}
{"compound": "O=C(O)C(F)(F)F.[H][C@@]12COC[C@]1([H])[C@@H](OCC1CCOCC1)CN2Cc1nccs1", "Mtb heat-shock": 23.91}
{"compound": "CC(C)OCc1ncn2c1CN(Cc1nccs1)CCC2", "LdMetRS": 9.841}
{"compound": "CSC1(CNC(=O)c2cccc(-n3cccn3)c2)CCOCC1", "LdMetRS": 5.376, "Mtb heat-shock": -10.57}
{"compound": "CS(=O)(=O)N1Cc2nccn2CC(CNC(=O)c2cccnc2)C1.O=C(O)C(F)(F)F", "stereo": "stereo not given", "Mtb heat-shock": -5.35}
{"compound": "CC(C)c1nnc2n1CCN(c1nc3ccccc3o1)C2", "LdMetRS": 8.059, "Mtb heat-shock": -9.172}
{"compound": "O=C(O)CC[C@@H]1CN(c2ncccc2F)CC[C@@H]1N1CCOCC1", "LdMetRS": 8.163, "Mtb heat-shock": -29.38}
{"compound": "CC(C)NC(=O)N1CCOC2(CCCN(c3ncccc3F)C2)C1.O=C(O)C(F)(F)F", "stereo": "stereo not given", "Mtb heat-shock": -5.121}
{"compound": "CCS(=O)(=O)NCC(Cc1cccc(F)c1)N1CCNC1=O", "stereo": "stereo not given", "LdMetRS": 16.38, "Mtb heat-shock": 16.65}
{"compound": "COCCNc1ncnc2c1CCN(C(=O)CC1CCC(=O)N1)CC2", "stereo": "stereo not given", "LdMetRS": 13.17, "Mtb heat-shock": 9.317}
{"compound": "CN(Cc1cccc(F)c1)C(=O)CN1CCCCC1Cn1cncn1", "stereo": "stereo not given", "LdMetRS": 9.449, "Mtb heat-shock": -29.38}
{"compound": "COCCN1C(=O)CO[C@@H]2CN(S(=O)(=O)c3ccccc3)C[C@H]21", "LdMetRS": -5.914}
{"compound": "CC(=O)N1CCCC(c2nc(N(C)C)ncc2-c2cccc(F)c2)C1", "stereo": "stereo not given", "LdMetRS": 19.35, "Mtb heat-shock": 10.65}
{"compound": "Cn1cc(CN2CCOC[C@H]2c2nc(C(C)(C)C)co2)c2ccccc21", "LdMetRS": 9.774, "Mtb heat-shock": 41.33}

5 of the entries, repeated:

| Compound | LdMetRS | Mtb heat-shock |
|---|---|---|
| `O=C(Cc1ccco1)N1C[C@@H]2COC[C@]2(COCC2CCOCC2)C1` | 22.41 | - |
| `Cc1cccc(C(C(=O)NCC2(Cn3nc(C)cc3C)CC2)N(C)C)c1` (stereo not given) | -1.003 | -17.68 |
| `O=C(c1ccccc1)N1CCCC2(CCN2Cc2cccc(F)c2)C1` (stereo not given) | 5.714 | - |
| `CCc1cnc(N2CC[C@H]3[C@@H]2CCC(=O)N3CC2CCOCC2)nc1` | 4.348 | - |
| `Cc1cccc(CN2CCC3(CCCN(CC(=O)N(C)C)C3)C2)n1` (stereo not given) | 7.843 | - |